Laboratory results published in paper PMC11286954.
Results are given in words; binding and its absence hold for the method and conditions named. Binding seen in cells or lysates may run through a third protein. Some results given as binding are weak or reduced against the parent protein; the word gives no strength.

Sequences of proteins named here, by UniProt entry; tags and fusion partners are left off.
UniProt Q93008: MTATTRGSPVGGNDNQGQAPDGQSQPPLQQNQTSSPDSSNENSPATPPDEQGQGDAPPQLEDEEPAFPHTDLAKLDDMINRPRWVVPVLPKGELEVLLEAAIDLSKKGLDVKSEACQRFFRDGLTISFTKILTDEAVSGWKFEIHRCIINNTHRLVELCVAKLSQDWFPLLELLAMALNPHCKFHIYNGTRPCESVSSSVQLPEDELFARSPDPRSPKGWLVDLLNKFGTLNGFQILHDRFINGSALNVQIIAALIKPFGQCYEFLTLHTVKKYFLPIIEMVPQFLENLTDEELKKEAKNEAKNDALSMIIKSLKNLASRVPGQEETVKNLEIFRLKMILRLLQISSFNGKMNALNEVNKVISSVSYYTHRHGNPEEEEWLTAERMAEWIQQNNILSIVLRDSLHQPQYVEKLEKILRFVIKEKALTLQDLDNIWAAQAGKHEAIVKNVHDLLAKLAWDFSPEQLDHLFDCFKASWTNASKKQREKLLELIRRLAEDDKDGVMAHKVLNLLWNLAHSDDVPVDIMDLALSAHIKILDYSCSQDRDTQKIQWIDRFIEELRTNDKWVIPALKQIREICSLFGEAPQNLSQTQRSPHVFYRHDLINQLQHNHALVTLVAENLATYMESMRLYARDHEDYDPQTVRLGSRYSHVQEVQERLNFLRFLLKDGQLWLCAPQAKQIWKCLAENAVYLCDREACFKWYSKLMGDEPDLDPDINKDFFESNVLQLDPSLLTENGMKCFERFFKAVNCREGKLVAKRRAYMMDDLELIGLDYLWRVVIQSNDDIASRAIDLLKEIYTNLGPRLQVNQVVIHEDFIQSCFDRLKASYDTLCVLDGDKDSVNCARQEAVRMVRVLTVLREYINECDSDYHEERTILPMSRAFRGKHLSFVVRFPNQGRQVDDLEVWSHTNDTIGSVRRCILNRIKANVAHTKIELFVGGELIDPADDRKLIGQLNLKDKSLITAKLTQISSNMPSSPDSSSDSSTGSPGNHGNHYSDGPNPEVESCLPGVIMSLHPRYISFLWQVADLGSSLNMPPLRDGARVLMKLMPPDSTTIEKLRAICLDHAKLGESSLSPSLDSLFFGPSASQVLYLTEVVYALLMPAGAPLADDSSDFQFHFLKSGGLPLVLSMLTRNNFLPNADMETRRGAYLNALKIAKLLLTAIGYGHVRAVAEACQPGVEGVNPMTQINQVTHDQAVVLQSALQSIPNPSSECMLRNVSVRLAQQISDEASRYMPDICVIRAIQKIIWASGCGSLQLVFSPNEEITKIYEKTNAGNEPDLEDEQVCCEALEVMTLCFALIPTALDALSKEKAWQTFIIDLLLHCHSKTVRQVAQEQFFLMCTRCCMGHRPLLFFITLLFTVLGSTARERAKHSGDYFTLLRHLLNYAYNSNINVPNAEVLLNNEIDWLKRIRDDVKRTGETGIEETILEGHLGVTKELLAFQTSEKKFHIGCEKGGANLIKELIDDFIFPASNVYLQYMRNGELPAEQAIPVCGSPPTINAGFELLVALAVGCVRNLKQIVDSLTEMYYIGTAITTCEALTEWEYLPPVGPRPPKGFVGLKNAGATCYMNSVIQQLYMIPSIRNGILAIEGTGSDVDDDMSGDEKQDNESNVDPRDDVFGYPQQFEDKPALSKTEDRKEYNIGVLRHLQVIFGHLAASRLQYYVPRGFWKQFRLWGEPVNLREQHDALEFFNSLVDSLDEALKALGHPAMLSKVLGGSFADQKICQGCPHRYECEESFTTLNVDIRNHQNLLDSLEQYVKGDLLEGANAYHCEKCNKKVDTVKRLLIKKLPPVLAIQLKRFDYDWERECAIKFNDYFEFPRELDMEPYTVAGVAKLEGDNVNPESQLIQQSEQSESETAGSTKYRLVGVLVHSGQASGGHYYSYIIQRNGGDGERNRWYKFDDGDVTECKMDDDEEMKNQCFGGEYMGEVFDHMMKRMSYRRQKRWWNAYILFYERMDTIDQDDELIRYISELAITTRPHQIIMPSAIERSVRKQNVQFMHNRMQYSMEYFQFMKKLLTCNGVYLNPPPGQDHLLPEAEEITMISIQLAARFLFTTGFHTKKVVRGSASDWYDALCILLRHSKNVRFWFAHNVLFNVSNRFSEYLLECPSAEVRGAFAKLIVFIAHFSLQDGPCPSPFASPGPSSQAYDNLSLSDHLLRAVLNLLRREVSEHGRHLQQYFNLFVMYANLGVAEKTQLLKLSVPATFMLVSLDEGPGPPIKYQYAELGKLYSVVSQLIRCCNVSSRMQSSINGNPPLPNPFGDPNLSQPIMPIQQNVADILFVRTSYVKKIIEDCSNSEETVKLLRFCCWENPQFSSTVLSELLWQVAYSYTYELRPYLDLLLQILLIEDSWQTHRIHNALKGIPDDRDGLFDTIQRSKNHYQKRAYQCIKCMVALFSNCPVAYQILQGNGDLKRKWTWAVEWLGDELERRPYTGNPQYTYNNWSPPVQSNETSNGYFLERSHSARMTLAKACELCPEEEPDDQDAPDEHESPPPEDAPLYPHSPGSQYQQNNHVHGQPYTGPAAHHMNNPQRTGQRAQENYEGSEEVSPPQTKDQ

Target: ubiquitin-specific peptidase 9 X-linked (USP9x) (human (endogenous in NCI-H1975)) (UniProt Q93008)
Test: co-IP; USP9x antibody on Protein A/G magnetic beads, incubated overnight with NCI-H1975 lysate; 10% of the beads used for immunoblotting; normal rabbit IgG as control

B1: pyrroline-5-carboxylate reductase 3 (PYCR3) (enzyme, UniProt Q53H96 1-274)
chain: MAAAEPSPRRVGFVGAGRMAGAIAQGLIRAGKVEAQHILASAPTDRNLCHFQALGCRTTHSNQEVLQSCLLVIFATKPHVLPAVLAEVAPVVTTEHILVSVAAGVSLSTLEELLPPNTRVLRVLPNLPCVVQEGAIVMARGRHVGSSETKLLQHLLEACGRCEEVPEAYVDIHTGLSGSGVAFVCAFSEALAEGAVKMGMPSSLAHRIAAQTLLGTAKMLLHEGQHPAQLRSDVCTPGGTTIYGLHALEQGGLRAATMSAVEAATCRAKELSRK
binding: binds
